# Assay results reported in the supplement of paper PMC8728848.
# The list shows a part of the results.
# How the values were obtained:
# Assay in all cases: glycan array binding signal (z-score within array); higher = stronger binding
# Conditions in all cases: glycan notation: IUPAC condensed, linker removed
# [1] = target: Fuc(a1-2)Gal
# Procedure, shortened: (§1)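 Arrays were curated from the Consortium for Functional Glycomics database, 3228 in total, and kept only where the protein sequence was available. Binding is expressed as a within-array Z-score. This score was averaged across arrays of the same protein sequence at different concentrations or buffers and across linkers, and negative values can be read as non-binding.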
# [2] = target: Fuc(a1-2)Gal(b1-3)GalNAc
# Procedure, shortened: as §1
# [3] = target: Fuc(a1-2)Gal(b1-3)GalNAc(a1-3)[Fuc(a1-2)]Gal(b1-4)Glc
# Procedure, shortened: as §1
# [4] = target: Fuc(a1-2)Gal(b1-3)GalNAc(a1-3)[Fuc(a1-2)]Gal(b1-4)GlcNAc
# Procedure, shortened: as §1
# [5] = target: Fuc(a1-2)Gal(b1-3)GalNAc(b1-3)Gal
# Procedure, shortened: as §1
# [6] = target: Fuc(a1-2)Gal(b1-3)GalNAc(b1-3)Gal(a1-4)Gal(b1-4)Glc
# Procedure, shortened: as §1
# [7] = target: Fuc(a1-2)Gal(b1-3)GalNAc(b1-4)[Neu5Ac(a2-3)]Gal(b1-4)Glc
# Procedure, shortened: as §1
# [8] = target: Fuc(a1-2)Gal(b1-3)GlcNAc
# Procedure, shortened: as §1
# [9] = target: Fuc(a1-2)Gal(b1-3)GlcNAc(b1-2)Man(a1-3)[Fuc(a1-2)Gal(b1-3)GlcNAc(b1-2)Man(a1-6)]Man(b1-4)GlcNAc(b1-4)GlcNAc
# Procedure, shortened: as §1
# [10] = target: Fuc(a1-2)Gal(b1-3)GlcNAc(b1-2)Man(a1-3)[Fuc(a1-2)Gal(b1-3)GlcNAc(b1-2)Man(a1-6)]Man(b1-4)GlcNAc(b1-4)[Fuc(a1-6)]GlcNAc
# Procedure, shortened: as §1
# [11] = target: Fuc(a1-2)Gal(b1-3)GlcNAc(b1-3)Gal(b1-4)Glc
# Procedure, shortened: as §1
# [12] = target: Fuc(a1-2)Gal(b1-3)GlcNAc(b1-3)GalNAc
# Procedure, shortened: as §1
# [13] = target: Fuc(a1-2)Gal(b1-3)GlcNAc(b1-3)[Fuc(a1-2)Gal(b1-3)GlcNAc(b1-6)]GalNAc
# Procedure, shortened: as §1
# [14] = target: Fuc(a1-2)Gal(b1-3)GlcNAc(b1-3)[Gal(b1-4)GlcNAc(b1-6)]Gal(b1-4)Glc
# Procedure, shortened: as §1
# [15] = target: Fuc(a1-2)Gal(b1-3)GlcNAc(b1-3)[Neu5Ac(a2-6)Gal(b1-4)GlcNAc(b1-6)]Gal(b1-4)Glc
# Procedure, shortened: as §1
# [16] = target: Fuc(a1-2)Gal(b1-3)GlcNAc6S
# Procedure, shortened: as §1
# [17] = target: Fuc(a1-2)Gal(b1-3)[Fuc(a1-4)]GlcNAc
# Procedure, shortened: as §1
# [18] = target: Fuc(a1-2)Gal(b1-3)[Fuc(a1-4)]GlcNAc(b1-2)Man(a1-3)[Fuc(a1-2)Gal(b1-3)[Fuc(a1-4)]GlcNAc(b1-2)Man(a1-3)]Man(b1-4)GlcNAc(b1-4)GlcNAc
# Procedure, shortened: as §1
# [19] = target: Fuc(a1-2)Gal(b1-3)[Fuc(a1-4)]GlcNAc(b1-2)Man(a1-3)[Fuc(a1-2)Gal(b1-3)[Fuc(a1-4)]GlcNAc(b1-2)Man(a1-6)]Man(b1-4)GlcNAc(b1-4)[Fuc(a1-6)]GlcNAc(b1-4)[Fuc(a1-6)]GlcNAc
# Procedure, shortened: as §1
# [20] = target: Fuc(a1-2)Gal(b1-3)[Fuc(a1-4)]GlcNAc(b1-3)[Fuc(a1-3)[Gal(b1-4)]GlcNAc(b1-6)]Gal(b1-4)Glc
# Procedure, shortened: as §1
# [21] = target: Fuc(a1-2)Gal(b1-3)[Fuc(a1-4)]GlcNAc(b1-3)[Gal(b1-4)GlcNAc(b1-6)]Gal(b1-4)Glc
# Procedure, shortened: as §1
# [22] = target: Fuc(a1-2)Gal(b1-4)Fuc(a1-3)]GlcNAc(b1-2)Man(a1-3)[Fuc(a1-2)Gal(b1-4)[Fuc(a1-3)]GlcNAc(b1-2)Man(a1-6)]Man(b1-4)GlcNAc(b1-4)GlcNAc
# Procedure, shortened: as §1
# [23] = target: Fuc(a1-2)Gal(b1-4)Glc
# Procedure, shortened: as §1
# [24] = target: Fuc(a1-2)Gal(b1-4)Glc6S
# Procedure, shortened: as §1
# [25] = target: Fuc(a1-2)Gal(b1-4)GlcNAc
# Procedure, shortened: as §1
# [26] = target: Fuc(a1-2)Gal(b1-4)GlcNAc(b1-2)Man
# Procedure, shortened: as §1
# [27] = target: Fuc(a1-2)Gal(b1-4)GlcNAc(b1-2)Man(a1-3)[Fuc(a1-2)Gal(b1-4)GlcNAc(b1-2)Man(a1-6)]Man(b1-4)GlcNAc(b1-4)GlcNAc
# Procedure, shortened: as §1
# [28] = target: Fuc(a1-2)Gal(b1-4)GlcNAc(b1-2)Man(a1-3)[Fuc(a1-2)Gal(b1-4)GlcNAc(b1-2)Man(a1-6)]Man(b1-4)GlcNAc(b1-4)[Fuc(a1-6)]GlcNAc
# Procedure, shortened: as §1
# [29] = target: Fuc(a1-2)Gal(b1-4)GlcNAc(b1-2)[Fuc(a1-2)Gal(b1-4)GlcNAc(b1-4)]Man(a1-3)[Fuc(a1-2)Gal(b1-4)GlcNAc(b1-2)Man(a1-6)]Man(b1-4)GlcNAc(b1-4)GlcNAc
# Procedure, shortened: as §1
# [30] = target: Fuc(a1-2)Gal(b1-4)GlcNAc(b1-3)Gal(b1-4)GlcNAc
# Procedure, shortened: as §1
# [31] = target: Fuc(a1-2)Gal(b1-4)GlcNAc(b1-3)Gal(b1-4)GlcNAc(b1-2)Man(a1-3)[Fuc(a1-2)Gal(b1-4)GlcNAc(b1-3)Gal(b1-4)GlcNAc(b1-2)Man(a1-6)]Man(b1-4)GlcNAc(b1-4)GlcNAc
# Procedure, shortened: as §1
# [32] = target: Fuc(a1-2)Gal(b1-4)GlcNAc(b1-3)Gal(b1-4)GlcNAc(b1-3)Gal(b1-4)GlcNAc
# Procedure, shortened: as §1
# [33] = target: Fuc(a1-2)Gal(b1-4)GlcNAc(b1-3)GalNAc
# Procedure, shortened: as §1
# [34] = target: Fuc(a1-2)Gal(b1-4)GlcNAc(b1-3)[Fuc(a1-2)Gal(b1-4)GlcNAc(b1-6)]GalNAc
# Procedure, shortened: as §1
# [35] = target: Fuc(a1-2)Gal(b1-4)GlcNAc(b1-3)[Fuc(a1-3)[Gal(b1-4)]GlcNAc(b1-6)]Gal(b1-4)Glc
# Procedure, shortened: as §1
# [36] = target: Fuc(a1-2)Gal(b1-4)GlcNAc(b1-6)GalNAc
# Procedure, shortened: as §1
# [37] = target: Fuc(a1-2)Gal(b1-4)GlcNAc6S
# Procedure, shortened: as §1
# [38] = target: Fuc(a1-2)Gal(b1-4)[Fuc(a1-3)]GlcNAc
# Procedure, shortened: as §1
# [39] = target: Fuc(a1-2)Gal(b1-4)[Fuc(a1-3)]GlcNAc(b1-2)Man(a1-3)[Fuc(a1-2)Gal(b1-4)[Fuc(a1-3)]GlcNAc(b1-2)Man(a1-6)]Man(b1-4)GlcNAc(b1-4)[Fuc(a1-6)]GlcNAc
# Procedure, shortened: as §1
# [40] = target: Fuc(a1-2)Gal(b1-4)[Fuc(a1-3)]GlcNAc(b1-2)[Fuc(a1-2)Gal(b1-4)[Fuc(a1-3)]GlcNAc(b1-4)]Man(a1-3)[Fuc(a1-2)Gal(b1-4)[Fuc(a1-3)]GlcNAc(b1-2)Man(a1-6)]Man(b1-4)GlcNAc(b1-4)GlcNAc
# Procedure, shortened: as §1
# [41] = target: Fuc(a1-2)Gal(b1-4)[Fuc(a1-3)]GlcNAc(b1-3)Gal(b1-4)[Fuc(a1-3)]GlcNAc
# Procedure, shortened: as §1
# [42] = target: Fuc(a1-2)Gal(b1-4)[Fuc(a1-3)]GlcNAc(b1-3)Gal(b1-4)[Fuc(a1-3)]GlcNAc(b1-3)Gal(b1-4)[Fuc(a1-3)]GlcNAc
# Procedure, shortened: as §1
# [43] = target: Fuc(a1-2)Gal(b1-4)[Fuc(a1-3)]GlcNAc(b1-3)GalNAc
# Procedure, shortened: as §1
# [44] = target: Fuc(a1-2)Gal(b1-4)[Fuc(a1-3)]GlcNAc(b1-3)[Neu5Ac(a2-6)Gal(b1-4)GlcNAc(b1-6)]Gal(b1-4)Glc
# Procedure, shortened: as §1
# [45] = target: Fuc(a1-2)Gal3S(b1-4)GlcNAc
# Procedure, shortened: as §1
binder,measurement,setting,value
"AT3G44510(29) (Arabidopsis thaliana), F4J341 (protein) MEEHLQGRIKLHDGRYLAYKERGVPKDDAKFTIVLVHGFGSSKDMNFNVSQELVNEIGIYFVLYDRAGYGESDPNPKRSLKSEAYDVQELADGLEIGSRFYLIGISMGSYTVWSCLKHIPQRLAGVAMVAPVVNFRWPSIPKSLMPKDYRREVAKWSVWIANYFPGLLQWLVTQNMFSTTSMLEKNPVYFNDQDIEVLKHIKGFPMLTKEKLRERGVFGTLRSDFLVAFGDWDFDPADLPDPSLSGPEKGSSSVHIWQGYEDKVMPFQLQRCLCRKLPWIRYHEVPKGGHLIVHYDGICDAILKSLLLGEDLPMYKPKAVITEPA",glycan array binding signal (z-score),[1],0.376
same,glycan array binding signal (z-score),[2],-0.306
same,glycan array binding signal (z-score),[3],1.73
same,glycan array binding signal (z-score),[4],-0.505
same,glycan array binding signal (z-score),[5],-0.126
same,glycan array binding signal (z-score),[6],1.31
same,glycan array binding signal (z-score),[7],-0.119
same,glycan array binding signal (z-score),[8],0.123
same,glycan array binding signal (z-score),[9],0.552
same,glycan array binding signal (z-score),[10],-0.086
same,glycan array binding signal (z-score),[11],0.022
same,glycan array binding signal (z-score),[12],-0.374
same,glycan array binding signal (z-score),[13],-0.277
same,glycan array binding signal (z-score),[14],0.542
same,glycan array binding signal (z-score),[15],-0.373
same,glycan array binding signal (z-score),[16],-0.678
same,glycan array binding signal (z-score),[17],0.062
same,glycan array binding signal (z-score),[18],0.773
same,glycan array binding signal (z-score),[19],-0.074
same,glycan array binding signal (z-score),[20],-0.313
same,glycan array binding signal (z-score),[21],0.203
same,glycan array binding signal (z-score),[22],0.139
same,glycan array binding signal (z-score),[23],-0.012
same,glycan array binding signal (z-score),[24],-1.09
same,glycan array binding signal (z-score),[25],0.25
same,glycan array binding signal (z-score),[26],-0.589
same,glycan array binding signal (z-score),[27],0.977
same,glycan array binding signal (z-score),[28],-0.771
same,glycan array binding signal (z-score),[29],-0.856
same,glycan array binding signal (z-score),[30],0.345
same,glycan array binding signal (z-score),[31],-0.325
same,glycan array binding signal (z-score),[32],-0.12
same,glycan array binding signal (z-score),[33],-0.838
same,glycan array binding signal (z-score),[34],0.16
same,glycan array binding signal (z-score),[35],-0.485
same,glycan array binding signal (z-score),[36],-0.731
same,glycan array binding signal (z-score),[37],-0.584
same,glycan array binding signal (z-score),[38],-0.381
same,glycan array binding signal (z-score),[39],-0.458
same,glycan array binding signal (z-score),[40],-0.398
same,glycan array binding signal (z-score),[41],-0.951
same,glycan array binding signal (z-score),[42],0.298
same,glycan array binding signal (z-score),[43],0.75
same,glycan array binding signal (z-score),[44],-0.039
same,glycan array binding signal (z-score),[45],3.33

# Part of the list above, with tabs:
binder	measurement	setting	value
AT3G44510(29) (Arabidopsis thaliana), F4J341 (protein) MEEHLQGRIKLHDGRYLAYKERGVPKDDAKFTIVLVHGFGSSKDMNFNVSQELVNEIGIYFVLYDRAGYGESDPNPKRSLKSEAYDVQELADGLEIGSRFYLIGISMGSYTVWSCLKHIPQRLAGVAMVAPVVNFRWPSIPKSLMPKDYRREVAKWSVWIANYFPGLLQWLVTQNMFSTTSMLEKNPVYFNDQDIEVLKHIKGFPMLTKEKLRERGVFGTLRSDFLVAFGDWDFDPADLPDPSLSGPEKGSSSVHIWQGYEDKVMPFQLQRCLCRKLPWIRYHEVPKGGHLIVHYDGICDAILKSLLLGEDLPMYKPKAVITEPA	glycan array binding signal (z-score)	[1]	0.376
same	glycan array binding signal (z-score)	[8]	0.123
same	glycan array binding signal (z-score)	[9]	0.552
same	glycan array binding signal (z-score)	[12]	-0.374
same	glycan array binding signal (z-score)	[15]	-0.373
same	glycan array binding signal (z-score)	[16]	-0.678
same	glycan array binding signal (z-score)	[26]	-0.589
same	glycan array binding signal (z-score)	[27]	0.977
same	glycan array binding signal (z-score)	[29]	-0.856
same	glycan array binding signal (z-score)	[30]	0.345
same	glycan array binding signal (z-score)	[31]	-0.325
same	glycan array binding signal (z-score)	[34]	0.16
same	glycan array binding signal (z-score)	[42]	0.298
same	glycan array binding signal (z-score)	[45]	3.33
